Among the data in PMC8748900 are binding values, retold here.

No constants are given. Whether binding was seen depends on the method and setting. In cells and extracts the contact can be indirect. Here binding means that the protein was enriched with, or labelled near, the bait; the list need not be complete. Sequences can lack the tags named with a protein.

The assay concerns the target T1, GFP-BASL (35S promoter-driven, in wild-type Arabidopsis) (Arabidopsis thaliana) (UniProt Q5BPF3).
T1 sequence: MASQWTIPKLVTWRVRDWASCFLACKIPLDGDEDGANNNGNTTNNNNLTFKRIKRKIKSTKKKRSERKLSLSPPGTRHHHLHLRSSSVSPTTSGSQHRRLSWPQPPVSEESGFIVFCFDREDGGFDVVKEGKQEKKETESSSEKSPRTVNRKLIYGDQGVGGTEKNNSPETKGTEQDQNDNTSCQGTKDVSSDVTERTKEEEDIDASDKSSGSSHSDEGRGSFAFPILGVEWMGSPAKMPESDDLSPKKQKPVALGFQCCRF
As to the kind of experiment: affinity purification with mass spectrometry; GFP-BASL from 3-day-old 35S::GFP-BASL seedlings isolated with GFP-Trap agarose, 3 h at 4 °C; LC-MS/MS; control BASL::GFP.

“PRAF9 (endogenous, Arabidopsis seedlings)”: the binding entry was “binds”.

Consider “PRAF8 (endogenous, Arabidopsis seedlings)”, for which the binding result is on record as “binds”.
